Our source for the binding signal values is paper PMC7819943, “Rice protein-binding microarrays: a tool to detect cis-acting elements near promoter regions in rice”.

By UniProt entry, the sequences of proteins in these tests, tags left out.
UniProt Q0JBA9, entry or part of it: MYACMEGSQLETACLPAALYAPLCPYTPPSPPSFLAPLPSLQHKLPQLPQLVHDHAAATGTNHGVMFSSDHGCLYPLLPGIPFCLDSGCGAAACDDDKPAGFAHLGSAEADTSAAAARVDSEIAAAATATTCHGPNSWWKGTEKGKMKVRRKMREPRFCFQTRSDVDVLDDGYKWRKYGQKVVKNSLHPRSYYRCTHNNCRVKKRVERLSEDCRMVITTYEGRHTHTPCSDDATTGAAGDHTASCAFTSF

The other results are listed elsewhere or left out.

This assay has as its target OsWRKY34 (Oryza sativa, UniProt Q0JBA9 1-250). As to the kind of experiment: protein-binding microarray (RPBM); PBS, 2% BSA, 51.3 ng/ul salmon testes DNA, 50 uM zinc acetate, 200 nM TF, 25 C, 1 h; high values mean tight binding. The following applies: protein: recombinant; tags: N-terminal polyhistidine and DsRed monomer fusion (pET32a); label: CyDye5-dUTP incorporated in the synthesized complementary strand; 3' TTTTT single-stranded linker to array surface; dsDNA, one strand shown. The essentials: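 In PBS with 2% BSA, salmon testes DNA and 50 µM zinc acetate, 200 nM protein was incubated on a custom Agilent array at 25 °C for 1 h and then washed off. The array had been made double-stranded by primer extension with Cy5-dUTP and blocked with 2% BSA. The proteins were transcription factors fused N-terminally to polyhistidine and DsRed, expressed in E. coli BL21-CodonPlus and purified on Ni–NTA. The binding signal is per-feature fluorescence intensity (arbitrary units) from an Axon 4000B scanner.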
Take “CCGAGCAAGTGCACAACTTCTCCTACCCATTGCTGGAAACCGGAGTCACCTAGTGCAG”: the binding signal is 8790 fluorescence intensity (a.u.).
In the case of “ACCAAGATTTTTTTTAGCCATTTGACGCGCTTTATCGATACGGAGTCACCTAGTGCAG” it was 10200 fluorescence intensity (a.u.); in that of “TGACAGATGATTGCCTTTCGAACTACTAAGCTTTTTCTCACGGAGTCACCTAGTGCAG”, 9500 fluorescence intensity (a.u.).
In the case of “GTGCATCGTGTGTGTGTTTGTTGTTAACGCGTCCGTCGCACGGAGTCACCTAGTGCAG” it was 9290 fluorescence intensity (a.u.); in that of “AATCACATTCTCAAGTCCTCACACATTCAATGCTGTAGATCGGAGTCACCTAGTGCAG”, 8290 fluorescence intensity (a.u.).
The same measure for “ATAGTACTTTATGCATCACTTATTATTTTTATTGTTTTTACGGAGTCACCTAGTGCAG”: 8780 fluorescence intensity (a.u.); for “GATTAGACTCCCCTTCTCTGGTCCCATCGTCGCGTTGTTTCGGAGTCACCTAGTGCAG”: 8510 fluorescence intensity (a.u.); for “CAGCTGCATGGGTTTTTTCTTTTTCTTTCCCCAAAATCGACGGAGTCACCTAGTGCAG”: 8140 fluorescence intensity (a.u.).
“CCTTAGCGTTCACACCTGTTCCTTTCCCGCGCTTCGGATTCGGAGTCACCTAGTGCAG”: the binding signal was 10700 fluorescence intensity (a.u.).
The same measure for “AGCTACTGATCAGTGCTTCTGTATTTTTTTTAACTGCTGTCGGAGTCACCTAGTGCAG”: 9090 fluorescence intensity (a.u.); for “TTCAAATCCAGTCGCAATTGTTCGTTTAGCTCCCGTTACGCGGAGTCACCTAGTGCAG”: 8460 fluorescence intensity (a.u.).
As to “GAAGTCAACATCACACATATTTTAATTACGGGGTATAGTACGGAGTCACCTAGTGCAG”, the binding signal was 10500 fluorescence intensity (a.u.).
In the case of “AGCTCACATGGATATTTGATCTTTATGGTGTTACTGAGCACGGAGTCACCTAGTGCAG” it was 8130 fluorescence intensity (a.u.).
The same measure for “CCCTTGACCCCGGGTTTGTTTGTTTATGGACCTGGATGAACGGAGTCACCTAGTGCAG”: 9960 fluorescence intensity (a.u.).
In the case of “AGGAGGTGCGATGCCGGCGTCCCATTGTCATTGATCTTGACGGAGTCACCTAGTGCAG” it was 8920 fluorescence intensity (a.u.); in that of “GCGCTCGCGTGGTTCCCGGTGGCGGCGGCGGCGGTGGCGGCGGAGTCACCTAGTGCAG”, 8320 fluorescence intensity (a.u.).
“TGCCTGCCCCGCCACTTTTTTTGATGCTAAAAGTCATTTACGGAGTCACCTAGTGCAG”: the binding signal was 10000 fluorescence intensity (a.u.).
The same measure for “ACTTAGGCATGCCACTCCTCATGATCTCATAGTTTACTGTCGGAGTCACCTAGTGCAG”: 9310 fluorescence intensity (a.u.); for “GCTGCCGTCCTACTCGCCGCCCTCCTCATCATGGCTTAATCGGAGTCACCTAGTGCAG”: 9490 fluorescence intensity (a.u.).
In the case of “TGTCTCCAATCACCCTTGTCGTCCAACCCCTGCTTTCCTGCGGAGTCACCTAGTGCAG”, the binding signal was 8970 fluorescence intensity (a.u.).
The same measure for “TTTTGGAGGAATTTTTCTTGTGAACTTTTTTCTTTTTAAACGGAGTCACCTAGTGCAG”: 8150 fluorescence intensity (a.u.).
In the case of “TTTTTTTGCCGGGTTTTTTTGGAGAGGTTTTGTGAGCATGCGGAGTCACCTAGTGCAG” it was 9510 fluorescence intensity (a.u.); in that of “AGGAGTACATCTGTTATCTTTCTCTTTTTCTCTTTTTCTTCGGAGTCACCTAGTGCAG”, 9920 fluorescence intensity (a.u.).
The same measure for “ACATGATCTCATCCGTCCATCTGCCATGACATCTAATCTCCGGAGTCACCTAGTGCAG”: 8220 fluorescence intensity (a.u.); for “AGTTTTGCACTGTTTATGTCTCACGTTTGACCGTTCGTTTCGGAGTCACCTAGTGCAG”: 11400 fluorescence intensity (a.u.).
As for “AATGGCTGTTTGTTCCTTGATTGCCACGTCTCTTTCCATCCGGAGTCACCTAGTGCAG”, the binding signal was 11100 fluorescence intensity (a.u.).
The same measure for “ACTGCTCTTATCTCTCTTCTTTTATCTTCTTAAAATATGTCGGAGTCACCTAGTGCAG”: 11200 fluorescence intensity (a.u.); for “TTTGTCCTGGGCTTCTTTCGGCCCAATCTCTCTCCCGTCGCGGAGTCACCTAGTGCAG”: 11100 fluorescence intensity (a.u.).
With “ACATGCACGCTGTTCGTTCCGCTCCGTCCGTTCACACGCGCGGAGTCACCTAGTGCAG”, the binding signal was 9090 fluorescence intensity (a.u.).
On to “CCCCAGCCGCTGCCGCTGCCATGTGCAATCATCCCCGCATCGGAGTCACCTAGTGCAG”, for which the binding signal is 8760 fluorescence intensity (a.u.).
The same measure for “CCCGGATACTATAGGTGGACACCTTCGAGTCGCTTCTCTCCGGAGTCACCTAGTGCAG”: 8160 fluorescence intensity (a.u.).
On to “CGATCTCTGGTTCCCTGTGCCGAAACTTATCTATTCAACTCGGAGTCACCTAGTGCAG”, for which the binding signal is 9150 fluorescence intensity (a.u.).
In the case of “TATTTTCCCCTTCTCAGTCCTCACACGTTCTCTTCCTCTCCGGAGTCACCTAGTGCAG” it was 9480 fluorescence intensity (a.u.); in that of “ACTACCTTTTGTTTTGTTGGATACACTTGAAGGTTAATTTCGGAGTCACCTAGTGCAG”, 8310 fluorescence intensity (a.u.); in that of “TACTTAATCCCATCGTCCATCCGCCATCTCATCTGATCTCCGGAGTCACCTAGTGCAG”, 14200 fluorescence intensity (a.u.).
“CTTCTCTCTCTCTCTCTGACTACCAGCACGAAGATGACGACGGAGTCACCTAGTGCAG”: the binding signal is 9070 fluorescence intensity (a.u.).
Consider “GTACTATAATACTCTCTCCGTCCCTAAATATTTGACGCCGCGGAGTCACCTAGTGCAG”, for which the binding signal is 9340 fluorescence intensity (a.u.).
“GGTCTATGTCTCTCTGATTATTTCTTTTACTAATTGTTTGCGGAGTCACCTAGTGCAG”: the binding signal is 9060 fluorescence intensity (a.u.).
In the case of “GTTGTACTGCATCTGTAATATACTCCTTATATTCCTTCATCGGAGTCACCTAGTGCAG”, the binding signal was 8650 fluorescence intensity (a.u.).
Regarding “ATTTCTAAAGTGTATTTCTATATGGACTCTAGTCTTCTCTCGGAGTCACCTAGTGCAG”, the binding signal was 8740 fluorescence intensity (a.u.).
In the case of “GACCCACCACCACCACCACGCCGCGAGCACGCGAGCGAACCGGAGTCACCTAGTGCAG” it was 8880 fluorescence intensity (a.u.); in that of “CCGGCCGGCCGGCCGCACCTCCACCACCGCACAGCACCTCCGGAGTCACCTAGTGCAG”, 8280 fluorescence intensity (a.u.).
